Experimental data published in PubChem BioAssay AID1671190 (National Center for Advancing Translational Sciences (NCATS), 2021).
The whole screen tested about 580,000 compounds, of which about 6,100 (1.1%) were called active. Inconclusive results, whose numbers are uncertain, are shown with a selection of clear calls. The call rests on the fitted dose curve; in most records, active means well fitted inhibition curve with a large enough effect; inconclusive means small, poorly fitted or top-dose-only effect, or another doubt; inactive means no such curve, though single readings can be large or run the other way. Potencies of inconclusive entries are doubtful fits and often do not repeat.

Sequences of proteins named here, by UniProt entry; tags and fusion partners are left off. A change or cut given only in a name is not applied to a line headed by its entry.
UniProt P18054: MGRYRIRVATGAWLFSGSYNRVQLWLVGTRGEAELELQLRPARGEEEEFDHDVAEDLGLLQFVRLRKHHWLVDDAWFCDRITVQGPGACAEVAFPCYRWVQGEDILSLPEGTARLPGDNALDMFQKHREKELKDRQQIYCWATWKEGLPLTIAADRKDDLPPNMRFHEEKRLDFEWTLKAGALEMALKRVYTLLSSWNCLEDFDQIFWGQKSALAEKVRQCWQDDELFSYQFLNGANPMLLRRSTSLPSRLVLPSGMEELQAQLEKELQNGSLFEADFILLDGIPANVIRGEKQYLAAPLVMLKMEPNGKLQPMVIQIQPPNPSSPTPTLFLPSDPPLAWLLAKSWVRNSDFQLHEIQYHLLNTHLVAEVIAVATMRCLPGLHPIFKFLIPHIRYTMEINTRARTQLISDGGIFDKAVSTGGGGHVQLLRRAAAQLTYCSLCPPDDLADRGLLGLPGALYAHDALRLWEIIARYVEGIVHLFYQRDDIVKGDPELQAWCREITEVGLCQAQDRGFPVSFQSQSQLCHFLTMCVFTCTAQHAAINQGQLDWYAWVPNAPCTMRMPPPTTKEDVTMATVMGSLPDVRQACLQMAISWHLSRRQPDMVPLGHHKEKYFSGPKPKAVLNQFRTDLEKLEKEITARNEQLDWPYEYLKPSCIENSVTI

These compounds were tested against Polyunsaturated fatty acid lipoxygenase ALOX12 (Homo sapiens) (UniProt P18054) (assay: Primary qHTS assay for inhibitors of human arachidonate 12S-lipoxygenase (ALOX12): Round 2). Details: purified 12hLO, xylenol orange hydroperoxide absorbance; activity change, negative = inhibition: at 108 µM (top of the series) unless noted.
How it was run: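 Hydroperoxide product was detected by ferrous iron/xylenol orange as the 573 to 405 nm absorbance ratio. Arachidonic acid at 40 uM (final) was turned over for 30 min at room temperature by 150 nM human 12hLO, pH 7.0 Hepes buffer, after 15 min compound preincubation.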
On the % scale 0 is the no-effect control and ±100 the full control effect; potency means the concentration at half of the fitted maximal effect.

SMILES	Potency	activity change, negative = inhibition
COc1ccc(NC(=O)c2ccco2)cc1NC(=O)c1ccco1	inactive	
Cc1nc(NCc2csc(-c3cnccn3)n2)cc(C2CC(O)C2)n1 (centres undefined)	inconclusive: 20 µM [inhibitor, single point]	
CC(=O)c1ccc(NC(=O)CSc2nccn2Cc2ccc3c(c2)OCO3)cc1	inconclusive: 141 µM [inhibitor, partial curve, poor fit]	
O=C(CCc1cc2n(n1)CCCNC2)N[C@H]1CCC[C@H]1Cc1ccc(F)cc1	inconclusive: 10 µM [inhibitor, full curve]	
COc1cc(O)c2c(=O)c3c(O)ccc(O)c3oc2c1	inconclusive: 1.41 µM [inhibitor, full curve, poor fit]	
CC(C)(C)C(=O)NC1(C(F)(F)F)NC(=O)N(Cc2ccccc2)C1=O (centres undefined)	inconclusive: 126 µM [inhibitor, partial curve, poor fit]	
CCc1sc(C(=O)Nc2ccc(N3CCOCC3)cc2)cc1C	inconclusive: 44.7 µM [inhibitor, partial curve, poor fit]	
Cc1ccc(C(C)C)c(OCc2nnc3n2CCCCC3)c1		inconclusive: -30.5% [inhibitor]
Cc1cc2ccccc2n1CCNC(=O)c1ccc(S(=O)(=O)N2CCOCC2)cc1	inconclusive: 70.8 µM [inhibitor, single point]	
O=C(CSc1nnc2c(n1)[nH]c1ccccc12)Nc1cccc(S(=O)(=O)N2CCOCC2)c1	inactive	
COc1cc(C(=O)N(C)Cc2ccccc2)ccc1OCc1ccccc1	inactive	
COCCNc1nc(-c2[nH]c(C)c(C(=O)OC)c2C)cs1	inconclusive: 7.08 µM [inhibitor, partial curve, poor fit]	
CCSc1cc(Cl)nc(N)n1	inconclusive: 35.5 µM [inhibitor, partial curve, poor fit]	
Cc1cn2nc(C(=O)N3CCC(NC(=O)CCc4ccccc4)CC3)cc2c(=O)[nH]1	inconclusive: 6.31 µM [inhibitor, partial curve, poor fit]	
O=C(COc1ccc(-c2nnc(Nc3ccccc3)c3ccccc23)cc1)N1CCCCC1	inactive	
CCCc1cc(C(=O)Nc2ccc(Br)cc2)no1	inconclusive: 141 µM [inhibitor, partial curve, poor fit]	
O=C(c1ccc(CS(=O)(=O)c2ccc(Br)cc2)o1)N1CCCCCC1	inconclusive: 56.2 µM [inhibitor, partial curve, poor fit]	
O=C(NC[C@H]1O[C@H](Cc2cc(COc3ccccc3)on2)CC[C@@H]1O)Nc1ccccc1	inconclusive: 89.1 µM [inhibitor, partial curve, poor fit]	
O=C(Nc1ccc2[nH]c(=O)[nH]c2c1)c1ccc([N+](=O)[O-])o1	inactive	
Cc1nc2ccccc2c(-c2ccccc2)c1C(=O)/C=C/c1ccccc1	inactive	
O=C1CCSc2ccc(C(=O)NO)cc2N1	active: 39.8 µM	
CCOC(=O)c1cc(NC(=O)CSc2nnc(CN3CCOCC3)n2C)ccc1Cl	inactive	

Two compounds drawn at random from the list so far:
SMILES	Potency	activity change, negative = inhibition
COc1ccc(NC(=O)c2ccco2)cc1NC(=O)c1ccco1	inactive	
Cc1ccc(C(C)C)c(OCc2nnc3n2CCCCC3)c1		inconclusive: -30.5% [inhibitor]

Remaining list, next part:

SMILES	Potency	activity change, negative = inhibition
O=C1c2ccccc2C(=O)C12Cc1ccccc1N1CCN(c3ccccc3)CC12 (centres undefined)	inconclusive: 12.6 µM [inhibitor, full curve, poor fit]	
C[C@@H]1CN(c2cnc3ccccc3n2)CC[C@@]1(O)C1CCC1	inactive	
CC(CC(=O)O)(C(=O)O)c1ccccc1 (centres undefined)	inconclusive: 44.7 µM [inhibitor, partial curve, poor fit]	
O=C(Cn1cccc1-c1nc(-c2ccc(Cl)cc2)no1)N1CCc2ccccc21	inactive	
O=C(Nc1ncc(SCCN2CCCC2)s1)[C@]1(c2ccc(S(=O)(=O)C3CC3)cc2)C[C@@H]1C1CCCCC1	inconclusive: 43.2 µM [inhibitor, single point]	
CCN1C(=O)[C@H]2[C@@H](c3ccc(-c4ccc(C(C)=O)cc4)cc3)N3CCC[C@@]3(C(=O)OC)[C@H]2C1=O	inconclusive: 79.4 µM [inhibitor, partial curve, poor fit]	
CN(C)c1ccc(C(=O)N2CCC3(CC2)NC(=O)N(c2cccc(F)c2)N3)cc1	active: 5.01 µM	
Oc1ccc(Cl)cc1C=NCc1cccc(Cl)c1	inconclusive: 44.7 µM [inhibitor, partial curve, poor fit]	
COc1ccc(C(=O)Oc2ccc(C(c3c(C)[nH][nH]c3=O)c3c(C)[nH][nH]c3=O)cc2OC)cc1	inactive	
Cc1cc(=O)oc2cc(NC(=S)NNC(=O)c3c(Cl)cnn3C)ccc12	inconclusive: 44.7 µM [inhibitor, partial curve, poor fit]	
O=C(O)c1ccc(COc2cccc(Cl)c2Cl)o1	inconclusive: 10 µM [inhibitor, partial curve]	
CN1CCN(CCC(=O)Nc2ccc(Cl)cc2)CC1	inconclusive: 100 µM [inhibitor, single point]	
Cc1ccc(NC(=O)Cn2c(=O)ccc3cc(S(=O)(=O)N4CCC(C)CC4)ccc32)cc1C	inactive	
C(=C\c1ccccc1)/CN1CCN(C(c2nnnn2-c2ccc3c(c2)OCCO3)C2CC2)CC1 (centres undefined)	inactive	
O=C(Nc1cccc(F)c1)N1C[C@H]2[C@@H](c3ccccc31)[C@H](CO)N2C(=O)c1cccnc1	inconclusive: 14.1 µM [inhibitor, partial curve, poor fit]	
O=C(CSc1nnc2ccc(-c3cccs3)nn12)NC1CCCC1	inconclusive: 2.82 µM [inhibitor, full curve, poor fit]	
Cc1cc(Cl)ccc1NS(=O)(=O)c1c(C)cc(N2C(=O)CCS2(=O)=O)cc1C	inactive	
CCN(CC(=O)Nc1ccc(NC(C)=O)cc1)C(=O)/C=C/c1cn(Cc2ccccc2)nc1-c1cccnc1	inactive	
O=C(O)/C=C/C(=O)c1ccc(Br)cc1	inconclusive: 0.708 µM [inhibitor, full curve, poor fit]	
Cc1cccc(NC(=O)CSc2nc(=O)n(Cc3cccnc3)c3c2CCC3)c1	inactive	
O=C(Cc1ccc(F)cc1)Nc1ccccc1Sc1ccccc1	inactive	
Cc1ccc(NC(=O)CCl)cc1C	inconclusive: 56.2 µM [inhibitor, single point]	
